{"source": "patent US4499093A", "about": "“Interferon induction method” (Dso \"Pharmachim\", priority 1982, dated 1985)", "test_system": "interferon", "assay": "identification of dipyridamole-induced interferon (pH, heat, enzyme resistance tests)"}
{"smiles": "OCCN(CCO)c1nc(N2CCCCC2)c2nc(N(CCO)CCO)nc(N3CCCCC3)c2n1", "note": "[Dipyridamole, 2,6-bis (diethanolamino)-4,8-dipiperidinopyramido [5,4-d]pyrimidine]", "values": [{"measurement": "Titre of dipyridamole-induced interferon", "setting": "L-cells, 56° C., 30 min", "result": "8 (4) IU/ml"}, {"measurement": "Titre of dipyridamole-induced interferon", "setting": "L-cells, 56° C., 60 min", "result": 4, "unit": "IU/ml"}, {"measurement": "Titre of dipyridamole-induced interferon", "setting": "L-cells, 65° C., 30 min", "result": 4, "unit": "IU/ml"}, {"measurement": "Titre of dipyridamole-induced interferon", "setting": "L-cells, 75° C., 30 min", "result": 4, "unit": "IU/ml"}, {"measurement": "Titre of dipyridamole-induced interferon", "setting": "L-cells, Controls", "result": 16, "unit": "IU/ml"}, {"measurement": "Titre of dipyridamole-induced interferon", "setting": "L-cells, Desoxyribonuclease", "result": 16, "unit": "IU/ml"}, {"measurement": "Titre of dipyridamole-induced interferon", "setting": "L-cells, Ether", "result": "16 (8) IU/ml"}, {"measurement": "Titre of dipyridamole-induced interferon", "setting": "L-cells, Ribonuclease", "result": 16, "unit": "IU/ml"}, {"measurement": "Titre of dipyridamole-induced interferon", "setting": "L-cells, Trypsin", "result": "< 4", "unit": "IU/ml"}, {"measurement": "Titre of dipyridamole-induced interferon", "setting": "L-cells, pH 2.0, 18 h", "result": 16, "unit": "IU/ml"}, {"measurement": "Titre of dipyridamole-induced interferon", "setting": "Mouse peritoneal leucocytes, 56° C., 30 min", "result": 16, "unit": "IU/ml"}, {"measurement": "Titre of dipyridamole-induced interferon", "setting": "Mouse peritoneal leucocytes, 56° C., 60 min", "result": 8, "unit": "IU/ml"}, {"measurement": "Titre of dipyridamole-induced interferon", "setting": "Mouse peritoneal leucocytes, 65° C., 30 min", "result": "8 (16) IU/ml"}, {"measurement": "Titre of dipyridamole-induced interferon", "setting": "Mouse peritoneal leucocytes, 75° C., 30 min", "result": "< 4", "unit": "IU/ml"}, {"measurement": "Titre of dipyridamole-induced interferon", "setting": "Mouse peritoneal leucocytes, Controls", "result": "32 (16) IU/ml"}, {"measurement": "Titre of dipyridamole-induced interferon", "setting": "Mouse peritoneal leucocytes, Desoxyribonuclease", "result": 32, "unit": "IU/ml"}, {"measurement": "Titre of dipyridamole-induced interferon", "setting": "Mouse peritoneal leucocytes, Ether", "result": 32, "unit": "IU/ml"}, {"measurement": "Titre of dipyridamole-induced interferon", "setting": "Mouse peritoneal leucocytes, Ribonuclease", "result": 32, "unit": "IU/ml"}, {"measurement": "Titre of dipyridamole-induced interferon", "setting": "Mouse peritoneal leucocytes, Trypsin", "result": "< 4", "unit": "IU/ml"}, {"measurement": "Titre of dipyridamole-induced interferon", "setting": "Mouse peritoneal leucocytes, pH 2.0, 18 h", "result": 32, "unit": "IU/ml"}, {"measurement": "Titre of dipyridamole-induced interferon", "setting": "Mouse serum (i.v.), 56° C., 30 min", "result": 128, "unit": "IU/ml"}, {"measurement": "Titre of dipyridamole-induced interferon", "setting": "Mouse serum (i.v.), 56° C., 60 min", "result": 8, "unit": "IU/ml"}, {"measurement": "Titre of dipyridamole-induced interferon", "setting": "Mouse serum (i.v.), 65° C., 30 min", "result": 4, "unit": "IU/ml"}, {"measurement": "Titre of dipyridamole-induced interferon", "setting": "Mouse serum (i.v.), Controls", "result": 128, "unit": "IU/ml"}, {"measurement": "Titre of dipyridamole-induced interferon", "setting": "Mouse serum (i.v.), Desoxyribonuclease", "result": 128, "unit": "IU/ml"}, {"measurement": "Titre of dipyridamole-induced interferon", "setting": "Mouse serum (i.v.), Ribonuclease", "result": 128, "unit": "IU/ml"}, {"measurement": "Titre of dipyridamole-induced interferon", "setting": "Mouse serum (i.v.), Trypsin", "result": "< 4", "unit": "IU/ml"}, {"measurement": "Titre of dipyridamole-induced interferon", "setting": "Mouse serum (i.v.), pH 2.0, 18 h", "result": 128, "unit": "IU/ml"}]}
